Results taken from patent US20260000674A1, “PHARMACEUTICAL COMPOSITION” (GEXVal Inc., priority 2022, published 2026).
Where a name gives a salt, the structure may show the parent alone. At least one structure is not confirmed: it was looked up by name or label, or the drawing left a doubt.

System: dermatitis in psoriasis model mice
Assay: Auricular thickening in imiquimod-induced psoriasis model mice (Test Examples 1 to 7)
Type: in vivo, male BALB/cCrSlc mice
Conditions: Test Example 6, FIG. 6; 30 mg/kg body weight, oral, Day 0 to Day 3
Experimental: 15 mg/ear of imiquimod cream (product name: Beselna cream, manufactured by Mochida Pharmaceutical Co., Ltd.) was repeatedly applied to the right auricle of male BALB/cCrSlc mice (9 weeks old) at once a day for 4 days (Day 0 to Day 3) to prepare psoriasis model mice. […] The auricular thickness was measured before the imiquimod cream application (Day 0) and approximately 24 hours after the final administration of each evaluation substance (Day 1 to Day 4), and the difference in auricular thickness (auricular thickening) between Day 0 and Day 4 was evaluated as the degree of inflammation. […]
Psoriasis model mice were prepared by the same method as in Test Example 1, and Vehicle (0.5% MC), 3 mg/kg body weight MSP, 30 mg/kg body weight MSP, and 10 mg/kg body weight APR (positive control) were orally administered at 10 mL/kg body weight each (Day 0 to Day 3) (n=6 per administration group). The difference in auricular thickness (auricular thickening) between Day 0 and Day 4 was evaluated as the degree of inflammation. […]

SMILES: COc1cc(N)c(Cl)cc1C(=O)NC1CCN2CCCC1C2 (stereo not shown) [RZP, Renzapride hydrochloride dihydrate]
- auricular thickening (difference in auricular thickness between Day 0 and Day 4) compared with 0.5% MC: significantly suppressed the auricular thickening
